Values of other authors as cited in patent US20230228764A1, “METHOD FOR THE DIAGNOSIS AND TREATMENT OF ESSENTIAL PRIMARY HYPERTENSION” (Universiteit Maastricht, priority 2020, published 2023).
For at least one compound, name, drawing or mass did not settle the structure.

What was measured:
[1] = system: hypertensive patients; details: clinical; by improving endothelial function; refs [88, 89]; cited from earlier work
[2] = system: elevated blood pressure induced by NOS uncoupling; details: preclinical, refs [85, 86]; cited from earlier work

With C[C@H](O)[C@H](O)[C@H]1CNc2nc(N)[nH]c(=O)c2N1 [H4Bip, tetrahydrobiopterin] as the compound, how does the “Effect on elevated blood pressure” value [1] read?
The value was “clinically effective to reduce elevated blood pressure”.

What about the “Effect on elevated blood pressure” value [2] of the same compound?
Its value is “lower elevated blood pressure”.
